Measured data: PubChem BioAssay AID1259424 (University of Nebraska Medical Center, 2018)
This is one part, drawn at random, of about 14,000 deposited reagents. 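Higher correlation or smaller distance means closer resemblance to KSR1 loss; control wells, including KSR1 knockdowns, recur on many plates.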 No sequences are given here. The record does not give: the time to read-out.

Test: 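Seek colon cancer survival genes behaving like KSR1, using a six-gene signature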 (primary screen)
System: human HCT116 colon cancer cells
Knock-down reagent: siRNA pool against human genes, 50 nM
Measured: 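Six signature mRNAs by branched-DNA multiplex assay, scaled to two housekeeping genes and non-targeting median, log2; matched to mean KSR1 knockdown profile by Pearson correlation and euclidean distance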
Reading the numbers: mean correlation with KSR1 profile and KSR1 correlation: higher = expression change more like KSR1 knockdown; mean distance from KSR1 profile: higher = expression change less like KSR1 knockdown

| target | mean correlation with KSR1 profile | mean distance from KSR1 profile | KSR1 correlation, replicate 1 | KSR1 correlation, replicate 2 | KSR1 correlation, replicate 3 |
| --- | --- | --- | --- | --- | --- |
| PLEKHN1 | 0.571 | 2.81 | 0.538 | 0.501 | 0.415 |
| VAMP8 | 0.527 | 2.83 | 0.468 | 0.466 | 0.388 |
| RNMT | -0.0582 | 1.52 | -0.339 | -0.113 | 0.183 |
| TENM4 | -0.615 | 2.04 | -0.352 | -0.612 | -0.6 |
| SLC22A7 | -0.392 | 3.22 | -0.0202 | -0.58 | -0.528 |
| IRF3 | 0.376 | 1.17 | 0.87 | 0.829 | -0.351 |
| LIME1 | -0.309 | 1.79 | -0.00802 | -0.611 | -0.25 |
| SMAP2 | 0.382 | 1.44 | 0.215 | 0.174 | 0.571 |
| POLR2A | -0.0384 | 4.34 | 0.569 | -0.179 | -0.832 |
| UHRF2 | -0.37 | 2.34 | -0.23 | -0.456 | -0.494 |
| RTF1 | -0.646 | 2.77 | -0.464 | -0.648 | -0.713 |
| CHEK1 | 0.288 | 3 | 0.446 | 0.101 | 0.0525 |
| RPL7 | -0.259 | 2.29 | 0.394 | -0.426 | -0.489 |
| WWTR1 | -0.116 | 1.35 | 0.305 | -0.552 | -0.0482 |
| BTN1A1 | 0.292 | 1.4 | 0.162 | 0.237 | 0.603 |
| DUX1 | -0.497 | 2.19 | -0.403 | -0.537 | -0.729 |
| TMEM127 | -0.105 | 1.64 | 0.232 | -0.394 | 0.109 |
| ZNF45 | 0.524 | 2.51 | 0.567 | 0.595 | 0.628 |
| SMG9 | -0.113 | 2.81 | 0.0213 | -0.287 | -0.167 |
| TESK2 | 0.683 | 1.39 | 0.791 | 0.739 | 0.0426 |
| FCHSD2 | -0.283 | 1.35 | -0.721 | -0.215 | 0.203 |

The list goes on; the last 2 above are carried over.
| target | mean correlation with KSR1 profile | mean distance from KSR1 profile | KSR1 correlation, replicate 1 | KSR1 correlation, replicate 2 | KSR1 correlation, replicate 3 |
| --- | --- | --- | --- | --- | --- |
| TESK2 | 0.683 | 1.39 | 0.791 | 0.739 | 0.0426 |
| FCHSD2 | -0.283 | 1.35 | -0.721 | -0.215 | 0.203 |
| CTSS | 0.342 | 2.8 | 0.1 | 0.317 | 0.581 |
| SUOX | -0.221 | 2.95 | -0.438 | -0.211 | -0.144 |
| FAM20A | -0.113 | 2.44 | -0.0859 | -0.151 | -0.127 |
| UBE2J2 | 0.398 | 1.12 | 0.648 | 0.144 | 0.0998 |
| ARFGAP3 | -0.933 | 1.43 | -0.857 | -0.0738 | -0.578 |
| GPRC5C | 0.664 | 2.56 | 0.64 | 0.687 | 0.602 |
| CYP2S1 | 0.282 | 2.14 | 0.198 | -0.000778 | 0.0497 |
| BCL2L13 | -0.223 | 1.42 | -0.228 | -0.0674 | -0.191 |
| NAA50 | 0.424 | 2.72 | 0.163 | 0.472 | 0.378 |
| MYO1F | 0.215 | 1.58 | 0.362 | 0.67 | -0.0131 |
| WWP2 | -0.0945 | 1.9 | -0.364 | 0.124 | -0.32 |
| EPS8L2 | 0.0575 | 3.85 | 0.109 | -0.071 | 0.0201 |
| C3AR1 | 0.613 | 2.03 | 0.603 | 0.539 | 0.553 |
| GCG | 0.593 | 1.92 | 0.602 | 0.575 | 0.515 |
| WTAP | -0.431 | 5.1 | -0.345 | -0.477 | -0.406 |
| KCNMB2 | -0.0459 | 1.63 | 0.0191 | -0.264 | 0.0781 |
| BCL2L1 | -0.235 | 3.18 | -0.568 | -0.208 | -0.275 |
| RNF186 | 0.169 | 1.21 | 0.369 | 0.287 | 0.295 |
| ZNF157 | -0.0475 | 3.32 | 0.132 | -0.202 | -0.102 |
| CNTRL | -0.0566 | 1.58 | -0.0689 | -0.201 | -0.04 |
| PCDHA4 | 0.157 | 1.76 | -0.214 | 0.00727 | 0.248 |
| PDE6A | -0.692 | 1.71 | -0.604 | -0.471 | -0.917 |
| HDAC3 | -0.143 | 2.51 | 0.0467 | -0.453 | -0.451 |
| CLIC2 | -0.643 | 2.44 | -0.581 | -0.685 | -0.653 |
| NCOA4 | 0.361 | 1.5 | 0.422 | 0.655 | -0.0716 |
| DNASE1 | -0.276 | 2.33 | -0.366 | -0.289 | -0.208 |
| AGER | 0.171 | 1.81 | 0.232 | 0.0104 | 0.211 |
| G6PC3 | -0.0401 | 2.11 | 0.104 | -0.386 | -0.249 |
| DAD1 | 0.162 | 1.61 | 0.476 | 0.116 | -0.0648 |
